From PubChem BioAssay AID540256 (National Center for Advancing Translational Sciences (NCATS), 2011)
Where “and” joins values, the source holds several entries; their conditions need not be identical. Equal values may be shown once. In all, about 300,000 compounds went through this assay and about 3,700 (1.2%) were called active. Inconclusive means that the source gave no clear call. Such entries were picked first, then a sample of the others. Calls follow the shape of the full dose curve; tested in HEK293 cells. Where the call is inconclusive, the potency comes from a doubtful curve fit.

test: qHTS for Inhibitors of binding or entry into cells for Lassa Virus; settings: Lassa virus pseudotype entry inhibition, cell reporter; activity change, negative = inhibition: at 37.9 µM (top of the series) unless noted; also: nearly all actives have a fitted effect of over 50% in size
% is scaled to controls: 0 for no effect and ±100 for the full control effect; potency is read from the fitted curve at half-maximal effect.

Structure (SMILES)	activity change, negative = inhibition	Potency
O=C(CCC1COc2ccccc2O1)NCC1COc2ccccc2O1 (centres undefined)	inactive: 11.4%	–
Cn1nccc1C(=O)Nc1ccn(C23CC4CC(CC(C4)C2)C3)n1	inactive: -29.9%	–
CCn1c2ccccc2c2cc(NC(=O)c3cc(C)on3)ccc21	–	inconclusive: 35.5 µM [inhibitor, single point]
Cc1ccc(Nc2c([N+](=O)[O-])ccc3nonc23)c(C)c1	inactive: 4.91% [at 46.1 µM]	–
C=CCOc1c(Br)cc(CNc2ccc3[nH]c(=O)[nH]c3c2)cc1OCC	inactive: -8.98%	–
CCOc1ccccc1NC(=O)C(OC(=O)c1ccccc1NS(=O)(=O)c1cccs1)c1ccccc1 (centres undefined)	–	inconclusive: 0.0891 µM [inhibitor, full curve, poor fit]
Cc1cc(-n2c(C)cc(C(=O)CSc3nc4ccccc4c(=O)n3Cc3ccco3)c2C)no1	–	inconclusive: 1.46 µM [inhibitor, full curve, poor fit]
COc1cc(C(=O)Nc2cccc(OCc3cc(=O)n4cc(C)sc4n3)c2)cc(OC)c1OC	–	inconclusive: 0.794 µM [inhibitor, full curve, poor fit]
CCC1(C)Cc2c(sc3nc(SC)nc(NCCN(C)C)c23)CO1 (centres undefined)	inactive: -10.9%	–
c1ccc(-c2noc(-c3ccco3)n2)nc1	–	inconclusive: 35.5 µM [inhibitor, single point]
C/C(=N\Nc1nc(C)cc(-c2ccccc2)n1)c1ccccc1	–	inconclusive: 17.8 µM [inhibitor, single point]
Cc1ccc(N(C(=O)c2csnn2)C(C(=O)NC2CCCCC2)c2ccccn2)cc1 (centres undefined)	–	inconclusive: 0.355 µM [inhibitor, partial curve, poor fit]
CCOc1cc(C2c3c(oc4cc(C)c(Cl)cc4c3=O)C(=O)N2Cc2ccco2)ccc1O (centres undefined)	inactive: 2.17%	–
CCSc1nc2c([nH]c3ccccc32)c(=O)n1-c1cccc(OC)c1	–	inconclusive: 17.8 µM [inhibitor, partial curve, poor fit]
CCn1c(C)c(CS(=O)(=O)c2ccccc2)[nH]c1=O	inactive: -6.58% [at 46.1 µM]	–
COc1cccc(NC(=O)Cn2c(=O)ccc3cc(S(=O)(=O)N4CCC(C)CC4)ccc32)c1	–	inconclusive: 15.8 µM [inhibitor, single point]
C=CCn1c(SCC(=O)NC2CCS(=O)(=O)C2)nnc1-c1ccc(Cl)cc1 (centres undefined)	inactive: -5.1%	–
CC(C)N(CC#CCC(O)(c1ccccc1)c1ccccc1)C(C)C	–	inconclusive: 18.4 µM [inhibitor, single point]
Cc1cccc(CN2CCN(C(=O)CCl)CC2)c1	–	inconclusive: 15.8 µM [inhibitor, single point]
COc1ccc(S(=O)(=O)Nc2cc3c(C(C)=O)c(C)oc3c3ccccc23)cc1	–	inconclusive: 6.31 µM [inhibitor, full curve, poor fit]
COc1ccc(Br)cc1CNC(=O)c1cnc2sc(N3CCCCCC3)nn2c1=O	inactive: -20% [at 46.1 µM]	–
O=C(NC1CCCc2ccccc21)c1ccc(=O)[nH]c1 (centres undefined)	–	inconclusive: 0.092 µM [activator, partial curve, poor fit]
COc1ccc(-c2c(C)oc3ccc(C)cc23)cc1	inactive: 0.256%	–

Record cards, from the list above. Order of values: activity change, negative = inhibition | Potency
O=C(NC1CCCc2ccccc21)c1ccc(=O)[nH]c1 (centres undefined) reads – | inconclusive: 0.092 µM [activator, partial curve, poor fit]
CCn1c(C)c(CS(=O)(=O)c2ccccc2)[nH]c1=O reads inactive: -6.58% [at 46.1 µM] | –
COc1ccc(-c2c(C)oc3ccc(C)cc23)cc1 reads inactive: 0.256% | –
O=C(CCC1COc2ccccc2O1)NCC1COc2ccccc2O1 (centres undefined) reads inactive: 11.4% | –

As a short view, 2 of the compounds above:
Structure (SMILES)	activity change, negative = inhibition	Potency
Cc1cc(-n2c(C)cc(C(=O)CSc3nc4ccccc4c(=O)n3Cc3ccco3)c2C)no1	–	inconclusive: 1.46 µM [inhibitor, full curve, poor fit]
COc1cc(C(=O)Nc2cccc(OCc3cc(=O)n4cc(C)sc4n3)c2)cc(OC)c1OC	–	inconclusive: 0.794 µM [inhibitor, full curve, poor fit]

Next part:

Structure (SMILES)	activity change, negative = inhibition	Potency
O=C1NC2(CCCCC2)C(=O)N1c1ccc(Cl)cc1	inactive: 7.59% [at 46.1 µM]	–
N#CCCNC(=O)Cn1c(COc2ccc(Cl)cc2)nc2ccccc21	–	inconclusive: 1.26 µM [inhibitor, single point]
CCOC(=O)c1cnc(/N=C/N(C)C)s1	inactive: 20.9%	–
CCOc1cccc(C(=O)NCc2ccccc2)c1	inactive: 15.2%	–
Cc1ccc(CN2C(=O)C(=O)c3cc(Br)cc(C)c32)cc1	–	inconclusive: 7.08 µM [inhibitor, full curve, poor fit]
COc1cccc(C(O)c2nc3ccccc3n2C)c1 (centres undefined)	–	inconclusive: 5.62 µM [inhibitor, single point]
c1ccc(C[n+]2cccc(-c3ccccc3)c2)cc1	–	inconclusive: 5.62 µM [activator, single point]
CCC(C(=O)Nc1ccccc1)n1nc(-c2cc(C)ccc2C)ccc1=O (centres undefined)	inactive: -5.5% [at 46.1 µM]	–
Cc1ccc(S(=O)(=O)N2CCOCC2)cc1C(=O)OCC(=O)N(Cc1ccccc1)C(C)C	inactive: -17.4%	–
O=S(=O)(Nc1ccc(F)cc1)c1cccc2nsnc12	–	inconclusive: 0.224 µM [inhibitor, full curve, poor fit]
C=CS(=O)(=O)N(Cc1ccc(Cl)c(Cl)c1)C[C@@H](O)CO	–	inconclusive: 7.91 µM [inhibitor, full curve, poor fit]
Cc1ccc(S(=O)(=O)C2(C(=O)Nc3ccc(C(C)C)cc3)CC2)cc1	–	inactive and inconclusive: 35.5 µM [inhibitor, single point]
Cc1ccc(O)c(-c2cc(-c3ccccc3C)[nH]n2)c1	–	inconclusive: 0.631 µM [inhibitor, single point]
CCOC(=O)c1ccc(NC(=S)N2CCSC2c2ccc(OC)cc2)cc1 (centres undefined)	–	inconclusive: 35.5 µM [inhibitor, single point]
O=C1CC(C(F)(F)F)=NN1	–	inconclusive: 1.58 µM [inhibitor, partial curve, poor fit]
CC(C)c1ccc(NC(=O)C2Cc3ccccc3N2C(=O)c2ccccc2)cc1 (centres undefined)	inactive: -12.4% [at 46.1 µM]	–
CC(=O)c1c(C)[nH]c(C(=O)CSc2nnc(-c3cccs3)n2Cc2ccccc2)c1C	–	inconclusive: 32.6 µM [inhibitor, single point]
Cc1cccc(NC(=O)CSCC(=O)Nc2ccccc2N2CCCCC2)c1	–	inconclusive: 17.8 µM [inhibitor, partial curve, poor fit]
CCc1ccc2[nH]c(=O)c(CN(Cc3ccc(F)cc3)C(c3nnnn3CCN3CCOCC3)C(C)C)cc2c1 (centres undefined)	inactive: -16.6%	–
O=C(CN(C(=O)c1csnn1)c1ccccc1F)NC1CCCCC1	inactive: 5.85%	–
O=C(Cc1cn2ccsc2n1)OCc1ccccc1	–	active: 5.01 µM
Cc1ccc(-c2[nH]nc(N)c2N=Nc2cccc(Cl)c2C)cc1	–	inconclusive: 10 µM [inhibitor, partial curve, poor fit]
Cc1nn(Cc2c(F)c(F)c(F)c(F)c2F)c(C)c1NC(=O)c1cccc(COc2ccc(Cl)cc2)c1	inactive: 1.86%	–

Structure (SMILES)	activity change, negative = inhibition	Potency
O=C(O)c1ccc(NS(=O)(=O)c2ccc(Cl)c(Cl)c2)cc1O	inactive: -0.253%	–
CC(C)(C)C1CCc2c(sc(NC(=O)CSc3ncn[nH]3)c2C#N)C1 (centres undefined)	–	inconclusive: 14.6 µM [inhibitor, partial curve, poor fit]
CCCCCc1ccc(-c2ccc(C(=O)Oc3ccc(C(=O)OC)cc3)cc2)nc1	–	inconclusive: 11.2 µM [activator, partial curve, poor fit]
O=C(COC(=O)CCS(=O)(=O)c1ccccc1)Nc1cc(S(=O)(=O)N2CCCCC2)ccc1Cl	–	inconclusive: 0.282 µM [activator, partial curve, poor fit]
CC(Sc1nc2ccccc2c(=O)n1C)C(=O)N(C)C1CCCCC1 (centres undefined)	–	inconclusive: 10 µM [inhibitor, partial curve, poor fit]
COc1ccccc1Nc1c2c(nc3ccc(NC(=O)/C=C/c4cc(OC)c(OC)c(OC)c4)cc13)CCCC2	–	inconclusive: 4.47 µM [inhibitor, full curve, poor fit]
CCn1c(COc2ccc(Cl)cc2)nnc1SCc1ccc(C#N)cc1	–	inconclusive: 14.1 µM [inhibitor, partial curve, poor fit]
COc1ccc(CNc2oc(-c3cccc4ccccc34)nc2C#N)cc1	inactive: -14.2%	–
O=C(CSc1nnnn1-c1ccccc1)CSc1nnnn1-c1ccccc1	–	inconclusive: 0.92 µM [inhibitor, full curve, poor fit]
CN(C)C(=O)CSc1nc(-c2ccccc2)nc2c1CCCC2	inactive: -3.7%	–
Cc1ccc(O)c(CNc2nccs2)c1	–	inconclusive: 6.31 µM [activator, single point]
CCN(CC)C(=O)CSc1nc2c(sc(=S)n2-c2ccccc2)c(=O)n1-c1ccccc1OC	–	inconclusive: 35.5 µM [inhibitor, single point]
Cc1cc(C)c(S(=O)(=O)N2CCN(C(=O)c3ccc(-n4cncn4)c([N+](=O)[O-])c3)CC2)c(C)c1	–	inconclusive: 20 µM [inhibitor, partial curve, poor fit]
CCCCSc1nnc2c(n1)[nH]c1ccccc12	–	inconclusive: 0.651 µM [activator, full curve]
COc1ccc(N(CC(=O)NCCc2ccccc2)C(=O)CCC(=O)Nc2nccs2)cc1	–	inconclusive: 1.41 µM [inhibitor, full curve, poor fit]
CN(C)S(=O)(=O)c1cc(NC(=O)CN2CCc3ccccc32)ccc1Cl	inactive: 4.8% [at 46.1 µM]	–
O=C1/C(=C\c2ccc(Br)o2)Cc2ccccc21	–	inconclusive: 6.31 µM [inhibitor, single point]
CCc1cc(C(=O)Nc2cc(S(=O)(=O)N3CCOCC3)ccc2N2CCN(CC)CC2)sc1C	–	inconclusive: 4.47 µM [inhibitor, partial curve, poor fit]
CCC(=O)Oc1ccc(C(CC)C(CC)c2ccc(OC(=O)CC)cc2)cc1 (centres undefined)	–	inconclusive: 2.31 µM [inhibitor, partial curve]
O=S(=O)(c1cccc(NC(=S)NCc2ccco2)c1)N1CCOCC1	–	inconclusive: 0.112 µM [activator, full curve, poor fit]
N#CCC(CNc1ncc(C(F)(F)F)cc1Cl)OC(=O)c1ccc(Cl)cc1 (centres undefined)	inactive: -4.2%	–
O=C(NC(C(=O)c1ccccc1)n1cnccc1=O)c1ccccc1 (centres undefined)	–	inconclusive: 3.55 µM [inhibitor, partial curve]
COc1ccc(-c2c/c(=N\c3nc(-c4ccccc4)c(C)s3)c3ccccc3o2)cc1O	–	inconclusive: 7.08 µM [inhibitor, full curve, poor fit]
